Test results reported in US20140199315A1 (Biogen, published 2014).
No constants are given. Whether binding was seen depends on the method and setting. Some results given as binding are weak or reduced against the parent protein; the word gives no strength.

Chains of the proteins cited; added tags and fusions are not shown. Lines headed by an entry give the natural chain unless they say otherwise; changes in a name come on top. A line that says so, or that is headed by a name, gives the form on record, which may keep a tag or linker. Residues count along the entry.
UniProt Q96FE5: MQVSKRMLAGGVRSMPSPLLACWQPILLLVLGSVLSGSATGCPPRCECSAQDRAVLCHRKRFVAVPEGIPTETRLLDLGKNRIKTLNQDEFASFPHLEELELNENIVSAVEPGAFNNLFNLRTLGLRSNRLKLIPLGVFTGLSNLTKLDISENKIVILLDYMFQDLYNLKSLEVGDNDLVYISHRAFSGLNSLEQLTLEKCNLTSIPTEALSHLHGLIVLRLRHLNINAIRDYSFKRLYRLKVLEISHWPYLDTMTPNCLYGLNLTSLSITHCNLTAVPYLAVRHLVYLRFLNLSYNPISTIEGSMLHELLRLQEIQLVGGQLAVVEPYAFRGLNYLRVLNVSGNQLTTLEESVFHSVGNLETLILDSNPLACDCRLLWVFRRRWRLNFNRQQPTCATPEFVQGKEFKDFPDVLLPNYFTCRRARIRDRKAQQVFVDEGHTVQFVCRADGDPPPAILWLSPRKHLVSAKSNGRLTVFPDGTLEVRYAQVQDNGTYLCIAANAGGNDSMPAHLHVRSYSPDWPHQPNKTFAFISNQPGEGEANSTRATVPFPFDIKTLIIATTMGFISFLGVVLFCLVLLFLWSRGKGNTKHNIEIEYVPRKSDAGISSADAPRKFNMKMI
UniProt Q9D1T0: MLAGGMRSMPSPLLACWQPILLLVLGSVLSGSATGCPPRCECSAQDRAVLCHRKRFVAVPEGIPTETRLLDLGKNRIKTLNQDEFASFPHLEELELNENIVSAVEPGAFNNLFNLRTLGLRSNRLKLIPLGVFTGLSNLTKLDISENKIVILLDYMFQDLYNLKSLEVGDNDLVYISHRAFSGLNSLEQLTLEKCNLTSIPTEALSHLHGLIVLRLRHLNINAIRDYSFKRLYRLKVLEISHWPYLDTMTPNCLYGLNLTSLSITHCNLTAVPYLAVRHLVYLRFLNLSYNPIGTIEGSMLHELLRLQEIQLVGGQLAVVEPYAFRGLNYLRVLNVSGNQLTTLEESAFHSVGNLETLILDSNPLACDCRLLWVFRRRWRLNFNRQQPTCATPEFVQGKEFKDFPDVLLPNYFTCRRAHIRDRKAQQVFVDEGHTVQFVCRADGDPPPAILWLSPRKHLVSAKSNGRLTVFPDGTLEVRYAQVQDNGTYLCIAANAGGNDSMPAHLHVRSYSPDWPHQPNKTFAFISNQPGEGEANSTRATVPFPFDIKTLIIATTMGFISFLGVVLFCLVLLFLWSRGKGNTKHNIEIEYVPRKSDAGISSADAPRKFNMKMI
full-length murine Sp35 with HA tag, from lysate of transfected cells: residues 34-614 of Q9D1T0
mouse Sp35 protein (form in the assay not stated): residues 36-532 of Q9D1T0
UniProt Q5RDJ4: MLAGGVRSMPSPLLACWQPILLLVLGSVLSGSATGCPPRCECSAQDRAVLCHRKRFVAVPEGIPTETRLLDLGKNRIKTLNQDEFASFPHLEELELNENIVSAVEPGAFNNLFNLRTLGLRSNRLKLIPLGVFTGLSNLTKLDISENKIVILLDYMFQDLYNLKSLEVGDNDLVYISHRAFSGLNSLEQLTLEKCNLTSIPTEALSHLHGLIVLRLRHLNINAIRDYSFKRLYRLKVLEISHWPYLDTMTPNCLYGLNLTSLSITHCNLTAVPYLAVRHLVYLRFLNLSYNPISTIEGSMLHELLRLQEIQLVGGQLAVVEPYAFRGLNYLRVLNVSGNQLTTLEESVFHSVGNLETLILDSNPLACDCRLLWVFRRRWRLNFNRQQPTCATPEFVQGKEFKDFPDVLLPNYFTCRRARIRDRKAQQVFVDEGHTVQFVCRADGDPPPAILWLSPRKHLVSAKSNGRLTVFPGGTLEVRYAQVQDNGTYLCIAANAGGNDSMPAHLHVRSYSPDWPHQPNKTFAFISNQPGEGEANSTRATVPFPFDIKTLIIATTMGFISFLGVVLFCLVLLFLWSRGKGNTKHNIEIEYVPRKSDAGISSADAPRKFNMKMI

Legend:
[1] = target: full-length human Sp35 with N-terminal hemagglutinin (HA) tag, from lysate of transfected COS-1 cells (human) (UniProt Q96FE5); assay: immunoprecipitation
[2] = target: Sp35-Fc fusion protein (human Sp35 residues 1-532 fused to hinge and Fc of human IgG1) (human) (UniProt Q96FE5); assay: immunoprecipitation
[3] = target: full-length murine Sp35 with HA tag, from lysate of transfected cells (mouse) (UniProt Q9D1T0); assay: immunoprecipitation
[4] = target: human Sp35 protein expressed on transfected cells (human) (UniProt Q96FE5); assay: FACS
[5] = target: AP-Sp35 (1-419) (Pongo abelii (Sumatran orangutan) (Pongo pygmaeus abelii)) (UniProt Q5RDJ4); assay: binding to Sp35 fragment
[6] = target: Sp35 fragment 34-417 (ELISA column of Table 3B) (Homo sapiens (Human)) (UniProt Q96FE5); assay: ELISA
[7] = target: mouse Sp35 protein (form in the assay not stated) (mouse) (UniProt Q9D1T0); assay: Western blot
[8] = target: human Sp35 protein (form in the assay not stated) (human) (UniProt Q96FE5); assay: Western blot
[9] = target: Sp35 fragment 34-417 (ELISA column of Table 3B) (Homo sapiens (Human)) (UniProt Q96FE5); assay: ELISA, truncated Sp35-Fc

Binder	binding [1]	binding [3]	binding [4]	further results
30-A11 (Li05) (Fab, V domains shown) VH: EVQLLESGGGLVQPGGSLRLSCAASGFTFSAYAMGWVRQAPGKGLEWVSSIVSSGGYTDYADSVKGRFTISRDNSKNTLYLQMNSLRAEDTAVYYCAREGDHNAFDIWGQGTMVTVSS VL: QSVLTQPPSVSVAPGQTARISCGGDNIGSKSVHWYQQRPGQAPVLVVYDDYDRPSGIPERFSGSNSGDTAILTITRVEVGDEADFYCQVRDSRTEERVFGGGTKVTVLG	binds	binds	binds	binding [2]: binds
D05 (Li05 Variable Region) (antibody, V domains shown) VH: EVQLLESGGGLVQPGGSLRLSCAASGFTFSAYAMGWVRQAPGKGLEWVSSIVSSGGYTDYADSVKGRFTISRDNSKNTLYLQMNSLRAEDTAVYYCAREGDHNAFDIWGQGTMVTVSS VL: QSVLTQPPSVSVAPGQTARISCGGDNIGSKSVHWYQQRPGQAPVLVVYDDYDRPSGIPERFSGSNSGDTAILTITRVEVGDEADFYCQVRDSRTEERVFGGGTKVTVLG			binds	binding [5]: binds
D08 (Li08 Variable Region) (antibody, V domains shown) VH: EVQLLESGGGLVQPGGSLRLSCAASGFTFSHYEMVWVRQAPGKGLEWVSSIRSSGGATKYADSVKGRFTISRDNSKNTLYLQMNSLRAEDTAVYYCAKESPDDYFDYWGQGTLVTVSS VL: DIQMTQSPSSLSASVGDRVTITCQASQDISYYLNWYQQKPGKAPKVLIYDVSNLQTGVPSRFSGSASATDFTLTISSLQPEDIATYYCQQSDNLPLTFGGGTKVEIKR			binds	
2F3 (antibody, V domains shown, murine hybridoma monoclonal antibody; also called monoclonal antibody 2F3; MAb 2F3) VH: EVKLEESGGGLVQPGGSMKLSCAASGFTFSDAWLDWVRQSPEKGLEWVAEIRSKANNHATNYAESVKGRFTISRDDSKSSVYLQMNSLRAEDTGIYFCTPSFAYWGQGTTVTVSS VL: DIQMTQSPASLSASVGETVTITCRASGNIYNYLAWFQQKQGKSPQLLVYNAKTLPDGVPSRFSGSGSGTQYFLKINSLQPEDFGSYYCQHFWAIPYTFGGGTKLEIKR				binding [6]: binds; binding [7]: binds; binding [8]: binds; binding [9]: binds
D10 (antibody, V domains shown) VH: EVQLLESGGGLVQPGGSLRLSCAASGFTFSTYPMVWVRQAPGKGLEWVSWIGPSGGVTAYADSVKGRFTISRDNSKNTLYLQMNSLRAEDTAVYYCARPYSSGWWDFDLWGRGTLVTVSS VL: DIQMTQSPSSMSASVGDTVTITCRASQGIGNWLAWYQQKPGKAPTLLIYAASSLESGVPSRFTGSGSSSGIDFTLTISDLHPEDLATYYCQQAQTFPLTFGGGTRVDLKR			binds	
29-E07 (Li07) (Fab, V domains shown) VH: EVQLLESGGGLVQPGGSLRLSCAASGFTFSMYFMGWVRQAPGKGLEWVSSISPSGGFTSYADSVKGRFTISRDNSKNTLYLQMNSLRAEDTAVYYCARDRHAFDIWGQGTMVTVSS VL: QSELTQPPSVSVSPGQTAIITCSGDQLGDKHVAWYQQKPGQSPVLVIYLDIKRPAGISERFSGSNSGNTATLTIRGTQAMDEADYYCQAWDIKTVFGGGTKLTVLS	binds	binds		
D07 (antibody, V domains shown) VH: EVQLLESGGGLVQPGGSLRLSCAASGFTFSMYFMGWVRQAPGKGLEWVSSISPSGGFTSYADSVKGRFTISRDNSKNTLYLQMNSLRAEDTAVYYCARDRHAFDIWGQGTMVTVSS VL: QSELTQPPSVSVSPGQTAIITCSGDQLGDKHVAWYQQKPGQSPVLVIYLDIKRPAGISERFSGSNSGNTATLTIRGTQAMDEADYYCQAWDIKTVFGGGTKLTVLS			binds	

The next lines start with results.

binding [1]	binding [3]	binding [4]	Binder	further results
binds	binds		34-F02 (Li06) (Fab, V domains shown) VH: EVQLLESGGGLVQPGGSLRLSCAASGFTFSEYPMDWVRQAPGKGLEWVSSIYSSGGSTVYADSIKGRFTISRDNSKNTLYLQMNSLRAEDTAVYYCAREGDSDAFDIWGQGTMVTVSS VL: DIQMTQSPSTLSASVGDRVTITCRASQSISSWLAWYQQKPGKAPNLLIYAASSLRTGVPSRFRGSGSGTDFTLTISSLQPEDFATYYCLQDYSYPLTFGQGTKLEIKR	
binds	binds		30-C12 (Li01) (Fab, V domains shown) VH: EVQLLESGGGLVQPGGSLRLSCAASGFTFSKYQMTWVRQAPGKGLEWVSSIYPSGGNTVYADSVKGRFTISRDNSKNTLYLQMNSLRAEDTAVYYCASGTTEAVFDYWGQGTLVTVSS VL: DIQMTQSPSSLSASVGDRVTITCQASQDISNYLNWYQQKPGKAPKLLIYDASNLETGVPSRFSGSGSGTDFTLTISSLQPEDFATYYCQQADRFPAVTFGGGTKVEIKR	
binds	binds		34-G04 (Li08) (Fab, V domains shown) VH: EVQLLESGGGLVQPGGSLRLSCAASGFTFSHYEMVWVRQAPGKGLEWVSSIRSSGGATKYADSVKGRFTISRDNSKNTLYLQMNSLRAEDTAVYYCAKESPDDYFDYWGQGTLVTVSS VL: DIQMTQSPSSLSASVGDRVTITCQASQDISYYLNWYQQKPGKAPKVLIYDVSNLQTGVPSRFSGSASATDFTLTISSLQPEDIATYYCQQSDNLPLTFGGGTKVEIKR	binding [2]: binds
binds	binds	binds	30-B01 (Li11) (Fab, V domains shown) VH: EVQLLESGGGLVQPGGSLRLSCAASGFTFSSYAMYWVRQAPGKGLEWVSSISTSGGYTGYADSVKGRFTISRDNSKNTLYLQMNSLRAEDTAVYYCARDTSDNDYYYMDVWGKGTTVTVSS VL: DIQMTQSPSSVSAPIGDRVTITCRASQEIANYLAWYQQKPGKAPKLLIYDTYTLQTDVPPRFSGSGSGTDFTLTISSLQPEDTATYFCQQADIFPLSFGGGTKVEIKR	
